The assay is described as follows: qHTS Assay to Find Inhibitors of Chronic Active B-Cell Receptor Signaling. As to conditions: ABC-DLBCL IkBa-CBG/CBR reporter, luminescence ratio (green luciferase fused to IkBa over red control in TMD8 lymphoma cells), 4 h. Summed up: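 TMD8 ABC-DLBCL cells carrying doxycycline-inducible green luciferase fused to IkappaBalpha plus unfused red luciferase were exposed to compounds (up to 46 uM) for 4 hrs at 37C. Activity came from the overlap-corrected green/red luminescence ratio.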

Setting [1] is: measured here: CBR red luminescence, cell number.
[2] abbreviates: measured here: IkBa-CBG green luminescence.

SMILES strings stand for the structures. This is one part of the list. These are further read-outs of the screen, such as a control signal, another cell line or another target. No call is given for them. Compounds called inactive in the main read-out are mostly missing here. Potencies come from curve fits of mixed quality, noted in brackets.

As for `CC(=O)c1ccc(NS(=O)(=O)c2cccc(C)c2)cc1`, the AC50 under setting [1] is 0.651 µM [falling, partial curve, poor fit].

On to `Cc1occc1C(=O)N1CCCC(Nc2ccc(C(C)C)cc2)C1` (centres undefined), for which the AC50 under setting [1] is 5.62 µM [rising, partial curve, poor fit].

As for `CN1C(=S)N(c2cccnc2)C(=O)/C1=C\c1ccc(N(C)C)cc1`, under setting [1], the AC50 is 7.94 µM [rising, partial curve, poor fit].

In the case of `Cc1oc(-c2ccc(C(F)(F)F)cc2)nc1CN(Cc1ccccn1)C[C@@H]1CCC(=O)N1`, the AC50 under setting [1] was 20 µM [falling, partial curve, poor fit].

`Cc1occc1C(=O)N/N=C/c1ccc(N(C)C)cc1`: the AC50 under setting [1] was 0.398 µM [falling, full curve].

Turning to `COc1cc(OC)c(C(=O)Nc2cccc3ccccc23)cc1OC`, the half-maximal activity concentration (AC50) under setting [1] is 8.91 µM [rising, partial curve, poor fit].

As to `Cc1ccc(N(CC(=O)NC2CCCC2)C(=O)CNC(=O)c2cccs2)cc1C`, the AC50 under setting [1] is 2.24 µM [rising, partial curve, poor fit].

As for `O=C(Nc1ccc(F)cc1)c1nsc(Cl)c1Cl`, the AC50 under setting [1] was 25.9 µM [falling, single point].

On to `COc1ccc(-c2nn(-c3ccccc3)cc2C(=O)Nc2cccc(C(=O)O)c2)cc1[N+](=O)[O-]`, for which the AC50 under setting [1] was 7.94 µM [rising, partial curve].

Take `COc1ccc(Nc2nc3ccccc3n3cnnc23)cc1`: the AC50 under setting [1] was 0.651 µM [rising, full curve].

Take `Cc1ccc[n+](-c2nc3ccccc3nc2[N-]S(=O)(=O)c2ccccc2)c1`: the AC50 under setting [1] is 0.631 µM [rising, full curve, poor fit].

`CS(=O)(=O)c1[nH]nc(-c2cccc(Cl)c2)c1C#N`: under setting [1], the AC50 is 3.55 µM [rising, partial curve, poor fit].

With `CCn1c(SCc2cc(=O)n3ccsc3n2)nc2ccccc21`, under setting [1], the concentration at half-maximal activity (AC50) is 7.08 µM [falling, partial curve].

Consider `O=C(Nc1ccc(Cl)cc1)Nc1ccc(Br)cn1`, for which, under setting [1], the concentration at half-maximal activity (AC50) is 0.447 µM [rising, full curve, poor fit].

For `CC(C)(C)c1cc(NC(=O)CCl)n(-c2ccccc2)n1`, the AC50 under setting [1] was 11.2 µM [falling, partial curve, poor fit].

Turning to `Cc1nn(C)c(Sc2ccccc2N)c1[N+](=O)[O-]`, the AC50 is 12.6 µM [rising, partial curve, poor fit] under setting [1] and 28.2 µM [falling, single point] under setting [2].

As to `Cc1nc(NC(=O)c2ccc3c(c2)OCCO3)ccc1Br`, under setting [1], the AC50 was 12.6 µM [falling, partial curve].

Turning to `CCOc1cc(CNCC(C)C)cc(Cl)c1OCc1ccccc1`, the AC50 under setting [1] was 14.1 µM [falling, single point].

For the compound `CC(C)C/C=C1\CCc2c([nH]c3ccccc23)C1=O`, under setting [1], the AC50 is 11.2 µM [falling, single point].

Take `CC12CN3CCN(CC(C3)/C1=N/NC(=O)Nc1ccccc1)C2`: the AC50 under setting [1] is 0.00461 µM [rising, full curve, poor fit].

With `O=[N+]([O-])/C=C/c1cn(Cc2ccccc2)c2ccccc12`, the AC50 under setting [1] was 31.6 µM [falling, partial curve, poor fit].

Consider `Cc1cc(C(=O)CSc2nc(N)cc(N)n2)c(C)n1-c1cccc(F)c1`, for which, under setting [1], the half-maximal activity concentration (AC50) was 6.51 µM [rising, partial curve, poor fit].

As for `Cc1nc(CNS(=O)(=O)c2cc([N+](=O)[O-])ccc2C)cs1`, under setting [1], the half-maximal activity concentration (AC50) was 31.6 µM [rising, single point].

`CC1(C)Cc2nc3nc(SCC(=O)NCc4ccccc4)n(-c4ccccc4)c(=O)c3cc2CO1`: the AC50 under setting [1] was 35.5 µM [falling, single point].

`CC(C)CN(C(=O)c1ccc(C(F)(F)F)cc1)c1c(N)n(CC(C)C)c(=O)[nH]c1=O`: the AC50 under setting [1] is 0.631 µM [falling, partial curve, poor fit].

With `COCc1c(C(=O)N/N=C/c2ccncc2)nnn1-c1nonc1N`, the AC50 under setting [1] is 28.2 µM [rising, single point].

On to `CCOC(=O)CN(C(=O)CSc1nnc2c(n1)[nH]c1ccccc12)c1ccccc1`, for which the half-maximal activity concentration (AC50) under setting [1] is 0.501 µM [falling, partial curve, poor fit].

As to `CCOC(=O)Cn1nc(C)c(NC(=O)c2ccc(Br)o2)c1C`, the concentration at half-maximal activity (AC50) under setting [1] was 11.2 µM [rising, partial curve, poor fit].

On to `COc1ccc(OC)c2sc(NC(=O)c3ccc(Br)s3)nc12`, for which the AC50 under setting [1] was 1.3 µM [falling, partial curve, poor fit].

With `O=c1c2ccccc2nc(SCc2cn3ccsc3n2)n1-c1ccccc1F`, the AC50 under setting [1] was 0.0326 µM [rising, full curve, poor fit].

Consider `CC(C)NC(=O)c1ccccc1NC(=O)CS(=O)(=O)Cc1ccccc1`, for which the AC50 under setting [1] is 18.4 µM [falling, single point].

As for `CCOC(=O)c1cccc(S(=O)(=O)N(CCO)Cc2cc3cc(OC)ccc3[nH]c2=O)c1`, the half-maximal activity concentration (AC50) under setting [1] was 7.31 µM [falling, single point].

As to `Cc1ccc(-n2nnc3c(SCC(=O)NCC4CCCO4)ncnc32)cc1` (centres undefined), under setting [1], the AC50 was 4.61 µM [falling, partial curve].

For the compound `Nc1nc(SCC(=O)Nc2ccccc2Sc2ccccc2)n[nH]1`, under setting [1], the AC50 is 1.64 µM [falling, partial curve, poor fit].

With `O=C(/C=C/c1ccc(F)cc1)Nc1cccc(S(=O)(=O)Nc2cccc(C(F)(F)F)c2)c1`, the concentration at half-maximal activity (AC50) under setting [1] was 29.1 µM [rising, single point].

In the case of `C(=N\N1CCN(c2ccccn2)CC1)/C1=C(N2CCOCC2)C(=C/c2ccccc2)/CC1`, under setting [1], the AC50 was 35.5 µM [rising, single point].

On to `Cc1ccc(C)c(N2CCN(C(=S)Nc3ccc4nc(N5CCN(C)CC5)cc(C)c4c3)CC2)c1`, for which, under setting [1], the AC50 is 12.6 µM [falling, single point].

With `O=C(N[C@H]1C/C=C\C[C@@H](CC(=O)N(CCO)Cc2ccccc2)C(=O)NC[C@H](c2ccccc2)OC1=O)OCC1c2ccccc2-c2ccccc21`, the AC50 under setting [1] is 20.6 µM [falling, single point].

On to `COCCn1c(C)cc(C(=O)COC(=O)CNC(=O)c2ccccc2)c1C`, for which the AC50 under setting [1] was 25.9 µM [rising, single point].

For `O=C(CSc1nc2ccccc2c(=O)n1-c1ccc(OC(F)F)cc1)NC1CC1`, the AC50 under setting [1] was 20.6 µM [falling, single point].

`Cc1ccc(N2C(=O)CC(c3c[nH]c4ccccc34)C2=O)cc1` (centres undefined): under setting [1], the concentration at half-maximal activity (AC50) was 0.501 µM [falling, full curve, poor fit].

As to `CC(C)COc1ccc(C(=O)Nc2ncn[nH]2)cc1`, under setting [1], the AC50 was 17.8 µM [falling, partial curve, poor fit].

`COc1cccc(CNC(=O)CCC(=O)n2ncc3cc(C)ccc32)c1OC`: under setting [1], the AC50 is 2.82 µM [rising, partial curve, poor fit].

`O=C(CN1C(=O)C2CCCCC2C1=O)Nc1ccc(S(=O)(=O)Nc2ncccn2)cc1` (centres undefined): the AC50 under setting [1] is 0.708 µM [falling, full curve, poor fit].

With `O=C(Nc1ccccc1O)c1ccc(NS(=O)(=O)c2cccc3cccnc23)cc1`, the AC50 reads like this: under setting [1], 0.0891 µM [falling, full curve, poor fit]; under setting [2], 15.8 µM [falling, partial curve, poor fit].

Turning to `CCc1cccc(CC)c1N(COC)C(=O)Cn1c(CO)nc2ccccc21`, under setting [1], the AC50 is 20 µM [falling, partial curve, poor fit].

Turning to `COc1ccc(NC(=O)C2CCN(C(=O)Nc3ccccc3)CC2)cc1S(=O)(=O)N(C)C`, under setting [1], the AC50 was 2.31 µM [rising, full curve, poor fit].

`Cc1noc(C)c1COC(=O)c1cccc(S(=O)(=O)N2CCOCC2)c1`: the AC50 under setting [1] was 29.1 µM [rising, single point].

Consider `Cc1ccc(NS(=O)(=O)c2cc(C(=O)NCCSC3CCCCC3)ccc2C)cc1`, for which the AC50 under setting [1] was 29.1 µM [falling, single point].

Regarding `CN(C)C(=O)C1C2NC(=S)N(c3ccc(Cl)cc3)C1(C)Oc1ccc(Cl)cc12` (centres undefined), the half-maximal activity concentration (AC50) under setting [1] is 35.5 µM [falling, single point].

As for `c1ccc(-c2cn3nc(-c4ccccc4)cnc3n2)cc1`, under setting [1], the AC50 is 2.06 µM [falling, partial curve].

Turning to `c1ccc(CCn2nnnc2C(c2cccnc2)N2CCN(c3nc4ccccc4s3)CC2)cc1` (centres undefined), the AC50 under setting [1] is 14.1 µM [falling, partial curve, poor fit].

With `Cc1cccc(NC(=O)CSc2nc(C3CC3)nc3ccccc23)c1`, the AC50 under setting [1] is 2.24 µM [falling, partial curve].

With `Cc1nnc(SCC(=O)NCc2ccco2)[nH]c1=O`, the AC50 under setting [1] is 29.1 µM [falling, single point].

With `C[C@H](CO)N1C[C@H](C)[C@@H](CN(C)Cc2ccccc2)Oc2c(NC(=O)Cc3ccccc3)cccc2C1=O`, under setting [1], the AC50 was 16.4 µM [falling, partial curve].

Regarding `CCNC(=O)NC(=O)C(C)Sc1ncc(C(F)(F)F)cc1Cl` (centres undefined), the AC50 under setting [1] was 14.1 µM [rising, partial curve, poor fit].

Turning to `COc1ccc(/C=N/OCC(=O)N(Cc2ccccc2)c2ccccc2C(=O)O)cc1`, the AC50 under setting [2] is 18.4 µM [rising, partial curve, poor fit].

Regarding `O=[N+]([O-])c1ccc(/C=C/c2ccncc2)cc1`, the AC50 under setting [1] is 10 µM [rising, partial curve].

For the compound `Cc1ccc(C(=O)Nc2ccccc2N2CCCC2)cc1`, the AC50 under setting [1] was 31.6 µM [rising, single point].

With `COc1ccccc1-c1cc(C(=O)Nc2cc(C)n(Cc3ccc(Cl)cc3)n2)no1`, the AC50 under setting [1] is 0.501 µM [falling, full curve, poor fit].

`c1ccc(CCN=C2CCCc3c2[nH]c2ccccc32)cc1`: the AC50 under setting [1] was 35.5 µM [falling, single point].

In the case of `Cc1ccc(-n2ncc3c(NCCCn4ccnc4)ncnc32)cc1C`, the AC50 under setting [1] was 35.5 µM [falling, single point].

Values taken from PubChem BioAssay AID493014 (National Center for Advancing Translational Sciences (NCATS), 2011).
